Structures can show the parent of a compound that is named as a salt. This is one part of the list. Single values are uncertain here, since repeats match poorly.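 In a drug-repurposing library screen, luminescence reads luciferase driven by eight TEAD-binding elements, stably integrated into human kidney-derived cells. Compounds scoring over five robust Z scores above the plate mean are called hits.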
Test system: HEK293A TEAD-LUC reporter
Assay: TEAD-luciferase reporter activity (YAP activation), robust Z score vs plate; higher = stronger YAP/TEAD activation
Details: 24 h

SMILES	TEAD-luciferase reporter activity (compound concentration: 200 nM)	TEAD-luciferase reporter activity (compound concentration: 2 uM)	TEAD-luciferase reporter activity (compound concentration: 10 uM)
C[N+]1(CCCCC[N+]2(C)CCCC2)CCCC1	inactive: 1.33	inactive: 0.369	inactive: 1.58
Cc1ccccc1-n1ccnc1S(=O)CCCOc1ccc2c(c1)CCC(=O)N2 (stereo unspecified)	inactive: -2.16	inactive: -0.377	inactive: 1.38
COc1cccc2c1C(=O)c1c(O)c3c(c(O)c1C2=O)C[C@@](O)(C(=O)CO)C[C@@H]3O[C@@H]1C[C@@H](N)[C@H](O)[C@@H](C)O1 [Epirubicin HCl]	inactive: 1.53	inactive: 1.06	inactive: -1.42
Fc1ccc(-c2cncc(CNCC3CCc4ccccc4O3)c2)cc1 (stereo unspecified)	inactive: -0.241	inactive: 1.57	inactive: -0.828
CCCCCCOc1ccccc1C(N)=O [exalamide]	inactive: -0.543	inactive: -1.81	inactive: -0.513
C[C@@H]1CN(C(=O)c2ccc(NC(=O)c3cc(O[C@H](C)c4c(Cl)ccc(F)c4Cl)c(N)nn3)cc2)C[C@H](C)N1 [Ensartinib]	inactive: -1.84	inactive: -1.97	inactive: -1.1
Cc1ncc2c(c1O)COC2(C)c1ccc(Cl)cc1 (stereo unspecified)	inactive: 0.0805	inactive: 0.682	inactive: 1.45
CC1(C)S[C@@H]2[C@H](NC(=O)[C@H](NC(=O)N3CCN(S(C)(=O)=O)C3=O)c3ccccc3)C(=O)N2[C@H]1C(=O)O [mezlocillin]	inactive: -0.451	inactive: -1.04	inactive: -0.614
CN[C@@H]1[C@H](O[C@H]2[C@H](O[C@@H]3[C@@H](O)[C@H](O)[C@@H](NC(=N)N)[C@H](O)[C@H]3NC(=N)N)O[C@@H](C)[C@]2(O)CO)O[C@@H](CO)[C@H](O)[C@H]1O	inactive: 4.74	inactive: -0.345	inactive: 0.13
N#Cc1cccc(COc2ccc(N3CC(CO)OC3=O)cc2)c1 (stereo unspecified)	inactive: -0.693	inactive: 0.112	inactive: -0.713
C=CCN1CCN(CC(C)(C)COC(=O)C2=C(C)NC(C)=C(C(=O)OC)C2c2cccc([N+](=O)[O-])c2)CC1 (stereo unspecified)	inactive: -0.715	inactive: -1.76	inactive: -1.41
NC(=O)c1csc([C@@H]2O[C@H](CO)C(O)C2O)n1 (stereo partly specified) [tiazofurin]	inactive: -0.813	inactive: -0.122	inactive: -0.047
O=C(CNC(=O)c1ccc(-c2cccc(C(F)(F)F)c2)cc1)NC1CCCC1	inactive: 1.43	–	inactive: 0.167
CN[C@@H](C)C(=O)N[C@H](C(=O)N1CCC[C@H]1C(=O)Nc1snnc1-c1ccccc1)C1CCCCC1	inactive: 2.1	inactive: 1.18	inactive: 0.798
CCC1NC(=O)c2cc(S(N)(=O)=O)c(Cl)cc2N1 (stereo unspecified) [Quinethazone]	inactive: -0.809	inactive: -0.233	inactive: 1.9
CN1C(=O)CC(C)(c2ccccc2)C1=O (stereo unspecified) [Methsuximide]	inactive: 1.17	inactive: -0.0783	inactive: 3.29
NC(=O)c1nnn(Cc2cc(Cl)c(C(=O)c3ccc(Cl)cc3)c(Cl)c2)c1N [CAI orotate]	inactive: -0.762	inactive: -0.632	inactive: 0.674
CN(CC1COCCO1)S(=O)(=O)Nc1ccc2ccc3ncc(-c4cnn(C)c4)cc3c(=O)c2c1 (stereo unspecified) [c-Met inhibitor, Merck]	inactive: -0.236	inactive: -1.48	inactive: -1.64
CC(NNC(=O)c1ccccc1)c1ccccc1 (stereo unspecified)	inactive: -0.522	inactive: 0.69	inactive: 2.07
CC(C)(C)c1cc(/C=C2\SC(=O)NC2=O)cc(C(C)(C)C)c1O	inactive: -2.04	inactive: -0.271	inactive: -0.642
C[C@H](NC(=O)Cc1ccccc1)C(=O)Nc1ccc(C2S/C(=N\c3cccc(F)c3)N(Cc3cccs3)C2=O)cc1 (stereo partly specified)	inactive: -1.54	inactive: 1.27	inactive: -0.401
COc1cc(-c2ccc(=O)[nH]n2)ccc1OC(F)F [Zardaverine]	inactive: -0.427	inactive: -1.48	inactive: -0.284
N=C(N)c1ccc(OCCCOc2ccc(C(=N)N)cc2Br)c(Br)c1	inactive: 4.03	inactive: -0.289	inactive: -0.464
CC(C)(C)c1ccc2c(c1)CC[C@H]2NC(=O)Nc1cccc2[nH]ncc12	inactive: -0.63	inactive: -1.08	inactive: -0.483

Single records, as listed above.
CCC1NC(=O)c2cc(S(N)(=O)=O)c(Cl)cc2N1 (stereo unspecified) [Quinethazone] is entered as TEAD-luciferase reporter activity (compound concentration: 200 nM): inactive: -0.809; TEAD-luciferase reporter activity (compound concentration: 2 uM): inactive: -0.233; TEAD-luciferase reporter activity (compound concentration: 10 uM): inactive: 1.9
CCCCCCOc1ccccc1C(N)=O [exalamide] is entered as TEAD-luciferase reporter activity (compound concentration: 200 nM): inactive: -0.543; TEAD-luciferase reporter activity (compound concentration: 2 uM): inactive: -1.81; TEAD-luciferase reporter activity (compound concentration: 10 uM): inactive: -0.513

Reference: the supplement of paper PMC10735217
